Publication PMC9864193
No constants are given. Whether binding was seen depends on the method and setting. Binding seen in cells or lysates may run through a third protein. Some entries that bind do so weakly or less than the wild type.

Experiments:
[1] = target: epidermal growth factor receptor (EGFR) (human (endogenous in HLaC-79 cells and LSCC patient tissue)) (UniProt P00533); experiment: proximity ligation; in situ PLA (Duolink) in fixed HLaC-79 cells with anti-SMN mouse monoclonal and anti-EGFR rabbit polyclonal antibodies
[2] = target: epidermal growth factor receptor (EGFR) (human (endogenous in HLaC-79 cells and LSCC patient tissue)) (UniProt P00533); experiment: proximity ligation; in situ PLA (Duolink) on de-paraffined 4 μm FFPE sections of LSCC tissue from patient #5 with anti-SMN mouse monoclonal and anti-EGFR rabbit polyclonal antibodies; negative control with only one primary antibody
[3] = target: epidermal growth factor receptor (EGFR) (human (endogenous in HLaC-79 cells and LSCC patient tissue)) (UniProt P00533); experiment: co-IP; HLaC-79 cellular extracts in IP buffer (50 mM Tris-HCl pH 7.5, 250 mM NaCl, 5 mM EDTA, 50 mM NaF, 0.1 mM NaVO4, 0.1% Triton X-100, 5% glycerol); IP overnight at 4 °C with anti-EGFR rabbit polyclonal antibody beads, rabbit IgG beads as negative control; five washes; immunoblot for SMN

Measured: binding

Survival Motor Neuron (SMN) protein (from UniProt Q16637 1-294)
binds: all assays above
